± gives the uncertainty stated by the source. Many entries were measured with a wide error.
Assay: self-splicing fitness, log relative to wild type (ln ratio); higher = more splicing; Tetrahymena group I intron in knt gene, E. coli kanamycin selection, DiMSum; sequences stand for … in CUCUCU…GGAGGGAAAAGUUAUCAGGCAUGCACCUGGUAGCUAGUCUUUAAACCAAUAGAUUGCAUCGGUUUAAAAGGCAAGACCGUCAAAUUGCGGGAAAGGGGUCAACAGCCGUUCAGUACCAAGUCUCAGGGGAAACUUUGAGAUGGCCUUGCAAAGGGUAUGGUAAUAAGCUGACGGACAUGGUCCUAACCACGCAGCCAAGUCCUAAGUCAACAGAUCUUCUGUUGAUAUGGAUGCAGUUCACAGACUAAAUGUCGGUCGGGGAAGAUGUAUUCUUCUCAUAAGAUAUAGUCGGACCUCUCCUUAAUGGGAGCUAGCGGAUGAAGUGAUGCAACACUGGAGCCGCUGGGAACUAAUUUGUAUGCGAAAGUAUAUUGAUUAGUUUUGGAGUACUCGUGGUCG
Procedure, shortened: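 DiMSum derived fitness as the error-weighted combination of fold changes across replicates, kanamycin versus no kanamycin, normalised to wild type. E. coli BL21(DE3) held the library, which randomised all eight P1ex-region intron nucleotides within the knt kanamycin-resistance gene on pET-22b(+). Six replicate transformations grew overnight at 37°C or 30°C on LB agar with or without 25 μg/mL kanamycin, also containing 100 μg/mL carbenicillin, 50 μM IPTG and 0.2% rhamnose, and pooled colonies were amplicon-sequenced on an Illumina HiSeq 2500.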

Sequence	self-splicing fitness (ln) (30 °C)	self-splicing fitness (ln) (37 °C)
CCGAAGCAAUAUUACGAACA	-4.23 ± 0.59	
GCAGAGCAAUAUUACGCAAA		-2.66 ± 0.54
CUGAAGCAAUAUUACGCAAA		-1.33 ± 1.2
CGAAAGCAAUAUUACGGAAC		-2.26 ± 0.64
GGCAAGCAAUAUUACGCCAG	-2.44 ± 0.55	
UUUUAGCAAUAUUACGCCAU	-3.47 ± 0.73	-2.93 ± 0.75
AGGGAGCAAUAUUACGGGCC	-2.79 ± 1.2	-0.233 ± 0.72
UCGGAGCAAUAUUACGAACU	-3.19 ± 1.2	
UCUUAGCAAUAUUACGGCCC	-0.828 ± 0.82	-1.09 ± 0.92
ACCGAGCAAUAUUACGCGGC		-2.77 ± 1.1
CGUCAGCAAUAUUACGACGC	-4.47 ± 0.51	
CUAAAGCAAUAUUACGCCGC		-1.78 ± 0.54
AAAUAGCAAUAUUACGGGUC	-3.56 ± 0.17	-3.1 ± 0.24
UCCCAGCAAUAUUACGCGGC	-3.81 ± 0.54	
UGGGAGCAAUAUUACGCAUU		-2.73 ± 0.61
CUGUAGCAAUAUUACGGGCC	-2.83 ± 0.54	
CGUGAGCAAUAUUACGCGCG	-2.44 ± 0.81	-0.234 ± 1
GGCCAGCAAUAUUACGGCUC	-1.31 ± 0.56	-4.19 ± 0.59
UGCUAGCAAUAUUACGUUCC	-3.97 ± 1	
CGCAAGCAAUAUUACGAUGC	-4.66 ± 0.51	
CAUAAGCAAUAUUACGUCCC	-3.56 ± 0.75	-1.39 ± 0.59
UCGAAGCAAUAUUACGCCGC		-2.34 ± 0.63
GGGUAGCAAUAUUACGUGGC	-4.18 ± 0.51	
UGGGAGCAAUAUUACGCUGC	-2.74 ± 0.56	
ACAUAGCAAUAUUACGCCAA	-2.19 ± 0.5	
UAAGAGCAAUAUUACGGCCC		-1.78 ± 1.2
CGGUAGCAAUAUUACGAAGC		-2.04 ± 0.65
CAUGAGCAAUAUUACGGCUC	-4.23 ± 0.6	-2.03 ± 1.1
GCAGAGCAAUAUUACGGCCA	-3.62 ± 0.6	

Quoted at random: two entries already listed, in no set order.
Sequence	self-splicing fitness (ln) (30 °C)	self-splicing fitness (ln) (37 °C)
CGUCAGCAAUAUUACGACGC	-4.47 ± 0.51	
CGGUAGCAAUAUUACGAAGC		-2.04 ± 0.65
